Drawing on PubChem BioAssay AID662 (National Center for Advancing Translational Sciences (NCATS), 2007), this text covers AC50 for 67 molecules.

Molecules are shown by their SMILES. Some of the results follow. These are further read-outs of the screen, such as a control signal, another cell line or another target. No call is given for them. Most of these compounds were active or inconclusive in the main read-out, so they are no random draw. The note in brackets gives the kind of curve behind each potency; many fits are weak.

This experiment is described as follows: Cell signaling CRE-BLA (Fsk stim). Particulars: CHO CRE-bla reporter (cAMP response element driving beta-lactamase), forskolin EC10, beta-lactamase ratio; measured here: 460 nm blue channel. The procedure, abridged:
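Cells were plated overnight at 37 °C, exposed to compound titrations plus EC10 NKH 477 for 3 h, then given CCF4 dye for 2 h at room temperature. Blue/green (460/530 nm) ratio was converted to %Activity and AC50 values calculated.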
Consider `Oc1c(C(c2ccccc2)N2CCN(Cc3ccccc3)CC2)sc2ncnn12` (configuration not stated), for which the AC50 is 15.8 µM [falling, partial curve].

As for `Cc1cccn2c(=O)c3cc(C(=O)N4c5ccccc5CC4C)n(C)c3nc12` (configuration not stated), the AC50 was 0.794 µM [rising, full curve].

In the case of `CC(C)COc1ccc(-c2nnc(-c3ccco3)o2)cc1`, the AC50 is 12.6 µM [rising, partial curve].

Regarding `O=C(Cn1cnc2c(nnn2Cc2ccc(F)cc2)c1=O)NCC1CCCO1` (configuration not stated), the AC50 was 0.0126 µM [falling, full curve, poor fit].

With `CC(C)(C)c1csc(NC(=O)c2ccc(Cl)s2)n1`, the AC50 was 25.1 µM [falling, single point].

`CCCCn1c(=O)[nH]c(=O)c2c1nc(COC(=O)c1c(C)noc1C)n2CCC`: the AC50 was 10 µM [rising, partial curve].

In the case of `N#CC(C(=O)NCc1ccco1)c1nc2ccccc2nc1N1CCOCC1` (configuration not stated), the half-maximal activity concentration (AC50) is 12.6 µM [rising, partial curve].

Consider `COc1cc(C(=O)Nc2oc(-c3ccccc3)c(-c3ccccc3)c2C#N)cc(OC)c1OC`, for which the concentration at half-maximal activity (AC50) was 1.26 µM [rising, full curve].

Turning to `OCCN1CCN(c2nc(N3CCCCC3)nc(N3CCCCC3)n2)CC1`, the AC50 is 0.00316 µM [falling, full curve, poor fit].

Consider `O=C(CSc1nnnn1-c1ccc(Cl)cc1)NC(=O)Nc1ccc2c(c1)OCCO2`, for which the concentration at half-maximal activity (AC50) is 3.16 µM [rising, single point].

Regarding `CCC1CCCCN1S(=O)(=O)c1ccc2c(c1)CCN2C(=O)C1CCC1` (configuration not stated), the AC50 is 12.6 µM [rising, single point].

For `N#CC1=C(N)C(C#N)(C#N)C2(CCC3(CC2)OCCO3)C2CC3(CC=C12)OCCO3` (configuration not stated), the AC50 was 25.1 µM [rising, single point].

With `COC(=O)c1c(NC(=O)CC2NCCNC2=O)sc2c1CCCC2` (configuration not stated), the AC50 is 12.6 µM [rising, single point].

For `COc1ccc(C2C(C(=O)OC3CCCCC3)=C(C)Nc3nnnn32)c(OC)c1OC` (configuration not stated), the AC50 is 25.1 µM [falling, single point].

With `CC1(C)Cc2cccc(OCC(=O)Nc3ccccc3N3CCOCC3)c2O1`, the AC50 was 5.01 µM [falling, single point].

Take `CCOC(=O)C1CCCN(Cc2ccc(O)c(OC)c2)C1` (configuration not stated): the AC50 is 0.00398 µM [falling, full curve, poor fit].

With `COc1ccc(Oc2ncc3nc(-c4cccs4)c(=O)n(Cc4cccs4)c3n2)cc1`, the AC50 was 3.98 µM [rising, full curve].

In the case of `CN(C)CCCN1C(=O)C(=O)/C(=C(/O)c2ccc3c(c2)OCCO3)C1c1ccccn1` (configuration not stated), the AC50 is 25.1 µM [falling, single point].

Take `COc1ccc(-c2cn3cccnc3n2)cc1NC(=O)CC(C)C`: the AC50 is 0.1 µM [falling, full curve].

Turning to `COc1ccccc1Cn1c(=O)c2ccccc2n2c(SCc3csc(C)n3)nnc12`, the AC50 is 5.01 µM [rising, full curve, poor fit].

As to `COc1ccc(-c2nnc3sc(-c4ccc(Br)o4)nn23)cc1OC`, the AC50 is 2.51 µM [rising, single point].

For `CCN(CC)S(=O)(=O)c1ccc(Nc2nc3ccccc3n3nnnc23)cc1`, the AC50 was 10 µM [rising, partial curve].

Consider `CCCCSc1nc2c(c(=O)[nH]c(=O)n2C)n1CCc1ccccc1`, for which the AC50 is 10 µM [rising, partial curve].

In the case of `COc1ccc(-c2nnc(SCC(=O)c3cccs3)o2)c(OC)c1`, the AC50 was 10 µM [rising, partial curve].

`CCCCCC1=C2CNC(Cc3ccccc3)(C(=O)OC)C=C2C(C)C1=O` (configuration not stated): the concentration at half-maximal activity (AC50) was 25.1 µM [rising, single point].

`CCC(C)n1[nH]c(=O)cc1N` (configuration not stated): the AC50 was 0.00316 µM [falling, full curve, poor fit].

With `O=C(NCCCNCc1ccccc1)c1ccc(/C=N/O)nc1`, the AC50 is 0.00316 µM [falling, full curve, poor fit].

As to `COc1ccc(OC)c(C2=Nn3c(nnc3-c3cc(OC)c(OC)c(OC)c3)SC2)c1`, the AC50 is 3.98 µM [falling, partial curve].

For the molecule `Cc1ccc(S(=O)(=O)NC(C)C(=O)NC2CCCCCC2)cc1` (configuration not stated), the AC50 is 3.16 µM [falling, partial curve, poor fit].

`COCCCNC(=O)CCn1c(=O)c2ccccc2n(CC(=O)Nc2cc(Cl)ccc2C)c1=O`: the AC50 was 0.398 µM [falling, partial curve].

As for `Cc1c(NC(=O)c2cc(-n3cnnc3)ccc2Cl)cccc1-c1nc2ccccc2o1`, the AC50 is 0.794 µM [falling, full curve].

Regarding `Cc1ccc(C(=O)CSc2n[nH]c(C)n2)cc1`, the AC50 is 1 µM [rising, single point].

With `COC(=O)c1ccccc1NC(=O)NCc1ccc2c(c1)OCO2`, the AC50 was 10 µM [rising, single point].

With `CCOc1ccc(-n2c(=O)c3sccc3n(CC(=O)NCc3ccco3)c2=O)cc1`, the AC50 is 0.0794 µM [falling, full curve].

`COc1ccccc1NC(=O)CSc1nc2ccccc2c(=O)n1CCNC(C)=O`: the AC50 was 15.8 µM [rising, partial curve].

For the molecule `CC1(C)CC(=O)c2c(noc2-c2ccccc2)C1`, the AC50 was 25.1 µM [rising, single point].

`COc1ccc(-c2nc3cnc(N4CCNCC4)nc3n(CCc3ccccc3)c2=O)cc1`: the AC50 was 1.26 µM [rising, full curve].

As for `OC[C@@H]1O[C@@H](n2cnc3cncnc32)[C@@H](O)[C@H]1O`, the half-maximal activity concentration (AC50) is 15.8 µM [falling, partial curve].

As for `CCOc1cc(CNc2ccccc2SC)ccc1O`, the AC50 was 0.00794 µM [falling, full curve].

With `CC(=O)c1c(C)[nH]c(C(=O)CSc2nnc(CN3CCCCCC3=O)n2-c2ccccn2)c1C`, the AC50 is 5.01 µM [falling, single point].

With `Cc1nc(N2CCCC2)c2nnn(Cc3ccccc3Cl)c2n1`, the AC50 is 2.51 µM [rising, full curve].

With `c1ccc(Nc2ncnc3ccc(-c4ccc5c(c4)OCO5)cc23)cc1`, the AC50 was 10 µM [rising, partial curve].

Regarding `CC(C(=O)OCc1nnc(-c2ccccc2)o1)N1C(=O)c2ccccc2C1=O` (configuration not stated), the AC50 was 0.0316 µM [falling, full curve, poor fit].

As for `O=C(CSc1nc2c(cnn2-c2ccc(F)cc2)c(=O)[nH]1)N1CCCCCC1`, the AC50 is 5.01 µM [rising, full curve, poor fit].

In the case of `COc1ccc(N2CCN(CC(=O)Nc3c(C)cc(C)cc3C)CC2)cc1`, the AC50 is 20 µM [falling, single point].

Consider `c1ccc(CNc2ncnc3c2cnn3-c2ccccc2)cc1`, for which the AC50 was 12.6 µM [rising, single point].

`CC(=O)CSc1nc2ccc(Nc3nc(N4CCOCC4)nc(N4CCOCC4)n3)cc2s1`: the AC50 is 12.6 µM [rising, partial curve].

Turning to `Nc1nc(SCC(=O)NCc2ccccc2)n[nH]1`, the AC50 is 3.98 µM [falling, partial curve].

Turning to `COc1cc(NC(=O)Cn2ncc3c2-c2ccccc2OC3)cc(OC)c1OC`, the AC50 was 10 µM [rising, partial curve].

Take `CC(=O)NCCNc1nc(-c2cccnc2)nc2ccccc12`: the concentration at half-maximal activity (AC50) was 5.01 µM [rising, partial curve].

Take `O=C(CSc1nc2ccccc2o1)Nc1ccccc1`: the half-maximal activity concentration (AC50) was 0.01 µM [falling, full curve].

With `COc1cccc(Cn2c(=O)cnc3cncnc32)c1`, the AC50 was 6.31 µM [rising, partial curve].

For `COC(=O)[C@@]1(Cc2ccccc2)[C@H]2c3cc(C(=O)N4CCCC4)n(Cc4ccccn4)c3C[C@H]2CN1C(=O)c1ccccc1`, the AC50 is 25.1 µM [rising, partial curve].

As for `COC(=O)c1ccc2c(=O)n(CC3CCCO3)c(SCC(=O)Nc3ccccc3OC)nc2c1` (configuration not stated), the AC50 is 5.01 µM [rising, partial curve].

Turning to `COc1ccc(C(C)(C)C)cc1NC(=O)Nc1ccc2c(c1)OCO2`, the AC50 was 10 µM [falling, single point].

Regarding `COc1ccc(Cn2nnnc2CN(Cc2cc3ccc(C)cc3[nH]c2=O)C2CCCC2)cc1`, the AC50 was 12.6 µM [rising, partial curve].

As to `COc1ccc(-c2nn3c(-c4ccco4)nnc3s2)cc1OC`, the AC50 is 6.31 µM [rising, partial curve].

Take `Cc1nc2scc(-c3ccccc3)c2c(=O)o1`: the AC50 was 12.6 µM [falling, single point].

`COCCCNC(=O)CN(c1cccc(Cl)c1)S(C)(=O)=O`: the AC50 is 0.631 µM [falling, full curve].

With `Cc1ccccc1N1OC2C(=O)N(c3ccc(F)cc3)C(=O)C2C1c1ccccn1` (configuration not stated), the AC50 was 31.6 µM [falling, single point].

With `O=C(O)c1ccc(-n2nc(C(F)(F)F)c3c2-c2ccoc2CC3)cc1`, the AC50 is 12.6 µM [rising, partial curve].

On to `COc1cc(-c2nnc(Cn3cc(C(F)(F)F)ccc3=O)o2)cc(OC)c1OC`, for which the AC50 is 12.6 µM [rising, partial curve].

In the case of `COC(=O)Nc1sc2c(c1C(=O)NCc1ccco1)CCC2`, the AC50 was 10 µM [rising, single point].

As to `COCCCNC(=O)CN(C1CCCCC1)S(=O)(=O)c1ccc(C)cc1`, the AC50 is 2.51 µM [rising, partial curve].

On to `Cn1c(=O)c2c(nc(NCc3ccco3)n2C/C=C/c2ccccc2)n(C)c1=O`, for which the AC50 was 12.6 µM [falling, partial curve].

In the case of `COc1cccc(C(=O)Oc2cc(N)n(S(=O)(=O)c3ccc(C)cc3)n2)c1OC`, the AC50 was 12.6 µM [falling, single point].

Take `COc1ccc2c(Cl)c(-c3nnco3)sc2c1`: the AC50 was 10 µM [rising, single point].
